Measurements as given in PubChem BioAssay AID493014 (National Center for Advancing Translational Sciences (NCATS), 2011).
The other results are listed elsewhere or left out. These are further read-outs of the screen, such as a control signal, another cell line or another target. No call is given for them. The list favours compounds with an active or inconclusive main result. Potencies come from curve fits of mixed quality, noted in brackets.

Assay: qHTS Assay to Find Inhibitors of Chronic Active B-Cell Receptor Signaling
Settings: ABC-DLBCL IkBa-CBG/CBR reporter, luminescence ratio (green luciferase fused to IkBa over red control in TMD8 lymphoma cells), 4 h
Method in brief: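 Doxycycline induced both beetle luciferases in TMD8 lymphoma cells; IKK-driven degradation limits the IkappaBalpha-fused green signal, while red luminescence normalises for cell number and nonspecific effects. Compounds tested up to 46 uM, 4 hrs.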

[1] = measured here: CBR red luminescence, cell number
[2] = measured here: IkBa-CBG green luminescence

Row | Structure (SMILES) | AC50 [1] | AC50 [2]
1 | CCC1=NN(C(=O)COc2ccccc2)C(O)(c2ccc(Br)cc2)C1 (stereo not drawn) | 15.8 µM [falling, partial curve] | –
2 | c1ccc(-n2c(-c3ccncc3)nnc2N2CCOCC2)cc1 | 5.62 µM [falling, single point] | –
3 | CN1C=CC=C/C1=C1\SC(=S)N(C2CCCCC2)C1=O | 1.58 µM [rising, partial curve, poor fit] | –
4 | O=S(=O)(c1ccccc1)N(F)S(=O)(=O)c1ccccc1 | 3.66 µM [rising, full curve] | –
5 | CSc1ncc(CN2CCc3c([nH]c4ccccc34)C2c2cccc(O)c2)cn1 (stereo not drawn) | 20 µM [falling, partial curve, poor fit] | 20 µM [rising, partial curve, poor fit]
6 | c1csc(-c2nc3ccccc3[nH]2)c1 | 2.91 µM [falling, full curve] | –
7 | Cn1c(C(=O)c2ccncc2)cc2ccccc21 | 20 µM [rising, single point] | –
8 | CCOc1ccc(S(=O)(=O)Nc2cccc(C(=O)N3CCN(c4cccc(OC)c4)CC3)c2)cc1 | 7.31 µM [rising, partial curve, poor fit] | –
9 | CN1CC(=O)N(CC(=O)Nc2ccc3c(c2)CCC3)C1=O | 11.2 µM [falling, partial curve, poor fit] | –
10 | COc1ccc(NS(=O)(=O)c2cc(NC(=O)c3ccc(F)cc3)ccc2OC)cc1 | 20.6 µM [falling, single point] | –
11 | CCOC(=O)c1c(NC(=O)C2c3ccccc3Oc3ccccc32)sc(C(N)=O)c1C | 6.51 µM [falling, single point] | –
12 | O=C(c1cc(-c2cccc(Cl)c2)on1)N1CCN(c2ccccc2)CC1 | 0.398 µM [falling, full curve, poor fit] | –
13 | COc1ccc(Br)cc1/C=N/n1c(COc2ccccc2)n[nH]c1=S | 35.5 µM [rising, single point] | –
14 | CCCCC(=O)Nc1ccc(NC(=O)c2cnccn2)cn1 | 3.98 µM [falling, partial curve, poor fit] | –
15 | O=C(/C=C/c1ccc(Cl)c([N+](=O)[O-])c1)Nc1cccc(NC(=O)c2ccco2)c1 | 1.84 µM [falling, full curve] | –
16 | CCCCOC(=O)/C=C/c1c(C)[nH]c(=O)[nH]c1=O | 29.1 µM [rising, single point] | –
17 | CC(=O)c1ccc(N(C(=O)c2csnn2)C(C(=O)NC2CCCC2)c2ccccc2)cc1 (stereo not drawn) | 0.501 µM [rising, full curve, poor fit] | –
18 | Cc1ccccc1C(=O)NC(=S)Nc1ccc(N2CCOCC2)cc1 | 7.08 µM [falling, partial curve, poor fit] | –
19 | CN(C)CCCCNCCCNC(=O)/C=N\O | 0.0259 µM [falling, full curve, poor fit] | –
20 | C=C1CCC2C(C)(C)[C@@H](O)CC[C@@]2(C)[C@@H]1COc1ccc2ccc(=O)oc2c1 (stereo partly drawn) | 3.55 µM [falling, partial curve] | –
21 | COc1ccc(CN(C)C(=O)c2ccc(NS(=O)(=O)c3ccc4[nH]c(=O)[nH]c4c3)cc2)c(OC)c1OC | 29.1 µM [rising, single point] | –

Full records from above:
`CCOc1ccc(S(=O)(=O)Nc2cccc(C(=O)N3CCN(c4cccc(OC)c4)CC3)c2)cc1` reads AC50 [1]: 7.31 µM [rising, partial curve, poor fit]
`C=C1CCC2C(C)(C)[C@@H](O)CC[C@@]2(C)[C@@H]1COc1ccc2ccc(=O)oc2c1` (stereo partly drawn) reads AC50 [1]: 3.55 µM [falling, partial curve]

Next part.

Row | Structure (SMILES) | AC50 [1] | AC50 [2]
22 | COC(=O)c1ccc(/C=N/NC(=O)C(=O)N2CCCCCC2)cc1 | 10 µM [falling, partial curve, poor fit] | –
23 | O=c1c2c3nc4ccccc4nc3n(/N=C/c3ccco3)c2ncn1CCC1=CCCCC1 | 7.94 µM [falling, partial curve, poor fit] | –
24 | C=CCN(c1ccccc1)S(=O)(=O)c1ccc2c(c1)NC(=O)C(C)S2 (stereo not drawn) | 35.5 µM [falling, single point] | 14.1 µM [rising, partial curve, poor fit]
25 | COc1ccc(C2CC(C(F)(F)F)n3ncc(C(=O)NCc4cccnc4)c3N2)cc1OC (stereo not drawn) | 6.51 µM [falling, single point] | –
26 | CCC(=O)C1=C(c2ccc(Cl)cc2)N(C(=O)CC)n2c(C)nnc2S1 | 7.08 µM [falling, full curve] | –
27 | COc1ccc(/C=C/C(=O)OCC(=O)N2CC(=O)Nc3ccccc32)cc1 | 25.9 µM [rising, single point] | –
28 | Cc1ccc(NC(=S)NC(=O)C2CCCC2)cc1C | 35.5 µM [rising, single point] | –
29 | CCC(=O)N1CCc2cc(S(=O)(=O)NC(Cc3ccccc3)C(=O)Nc3nccs3)ccc21 (stereo not drawn) | 25.9 µM [rising, single point] | –
30 | COCCN1CCn2c(nc3cc(NC(C)=O)ccc32)C1 | 35.5 µM [rising, single point] | –
31 | Fc1ccc2c(c1)C(c1ccc(N3CCOCC3)cc1)=NNC(c1cccs1)=N2 | – | 13 µM [falling, partial curve, poor fit]
32 | Cc1cc(C(F)(F)F)n2ncc(-c3ccccc3)c2n1 | 10.3 µM [rising, partial curve, poor fit] | –
33 | Cc1cc(SCC(=O)c2cc(C)n(C)c2C)nc2ccccc12 | 9.2 µM [falling, partial curve, poor fit] | –
34 | NC(=O)NC(CC(=O)NNC(=O)c1ccccn1)c1ccccc1Cl (stereo not drawn) | 2.91 µM [rising, single point] | –
35 | COc1ccc(C(=O)Nc2ccc3c(c2)OCCO3)cc1 | 16.4 µM [falling, partial curve] | –
36 | COc1cccc(C2/C(=C(/O)c3ccc4c(c3)OCO4)C(=O)C(=O)N2CCN2CCOCC2)c1 (stereo not drawn) | 20 µM [falling, single point] | –
37 | COc1ccc(CN2CN(C3CCCC3)CSC2=S)cc1 | – | 35.5 µM [falling, single point]
38 | Cc1cccnc1NC(=S)NC(=O)/C=C/c1ccco1 | 3.26 µM [falling, partial curve] | –
39 | CCOc1ccc(NC(=O)c2cccc3c2C(=O)N(CC2CCCO2)C3)cc1 (stereo not drawn) | 2 µM [rising, full curve, poor fit] | –
40 | CCOC(=O)/C(C#N)=C/Nc1ccsc1C(C)=O | 8.91 µM [rising, partial curve, poor fit] | –
41 | Cc1nc2ccccn2c1C(=O)NN | 2.31 µM [rising, full curve, poor fit] | –
42 | CC(=O)N/C(=C\c1ccccc1)C(=O)OC(C)C(=O)c1ccccc1 (stereo not drawn) | 20.6 µM [rising, partial curve] | –

Entries above containing a CF3 group (2):
Row | Structure (SMILES) | AC50 [1] | AC50 [2]
25 | COc1ccc(C2CC(C(F)(F)F)n3ncc(C(=O)NCc4cccnc4)c3N2)cc1OC (stereo not drawn) | 6.51 µM [falling, single point] | –
32 | Cc1cc(C(F)(F)F)n2ncc(-c3ccccc3)c2n1 | 10.3 µM [rising, partial curve, poor fit] | –

(list continues)

Row | Structure (SMILES) | AC50 [1] | AC50 [2]
43 | N/C(=N\N=C\c1cccc(O)c1)c1nonc1N | 10 µM [falling, partial curve] | –
44 | CC1(C)CC(=O)c2sc(NC(=O)c3ccccc3)nc2C1 | 2.24 µM [falling, full curve, poor fit] | –
45 | COC(=O)C1=C(C)NC(C)=C(C(=O)OCCN(C)Cc2ccccc2)C1c1cccc([N+](=O)[O-])c1 (stereo not drawn) | 1.03 µM [rising, partial curve, poor fit] | –
46 | CC(C)NC(=O)c1onc(CSc2ccccc2F)c1C(=O)O | 11.2 µM [falling, partial curve] | –
47 | N#CCC(=O)N/N=C/c1cn(Cc2ccc3ccccc3c2)c2ccccc12 | 0.316 µM [rising, partial curve, poor fit] | –
48 | O=C(NN=C1CCCCCC1)C(=O)Nc1cccc(Br)c1 | 18.4 µM [falling, single point] | –
49 | Cc1nc2ncccn2c1-c1csc(Nc2ccc(N(C)C)cc2)n1 | 3.55 µM [rising, partial curve] | 8.91 µM [falling, partial curve]
50 | CCCCNc1ncnc2c1cnn2-c1ccccc1 | 10 µM [falling, partial curve] | –
51 | COc1ccc(C(=O)N2CCCC(Nc3ccc(F)c(F)c3)C2)c(OC)n1 (stereo not drawn) | 0.316 µM [rising, full curve, poor fit] | –
52 | Cc1ccc(Cl)cc1NC(=O)COC(=O)C1CCCCC1 | 29.1 µM [rising, single point] | –
53 | OCC1(CO)COC(/C=C/c2ccccc2)=N1 | 35.5 µM [falling, single point] | –
54 | Cc1c(Br)c(C(=O)N2CCc3ccccc32)nn1C | 2.59 µM [rising, full curve, poor fit] | –
55 | CC(=O)Nc1sc(NC(=O)c2ccc(C)cc2)nc1-c1cccs1 | 2.59 µM [falling, full curve] | 3.26 µM [rising, full curve, poor fit]
56 | COCc1ccc(CN2CCCC(C(=O)Nc3ccccc3-c3ccc(OC)cc3)C2)o1 (stereo not drawn) | 14.1 µM [falling, partial curve, poor fit] | –
57 | O=C(CCc1ccccc1)NNC(=O)c1ccc(Br)cc1 | 22.4 µM [rising, partial curve, poor fit] | –
58 | Cc1ccc(S(=O)(=O)N(C)c2ccc(OCC(=O)Nc3cccc(-n4cnnn4)c3C)cc2)cc1 | 22.4 µM [rising, single point] | –
59 | COc1ccc(NS(=O)(=O)c2ccc3c(c2)Cc2ccccc2-3)cn1 | 14.1 µM [falling, single point] | –
60 | Cc1cc(C(=O)CN2c3cccc4cccc(c34)S2(=O)=O)c(C)n1C | 29.1 µM [rising, single point] | 20.6 µM [falling, single point]
61 | Cc1ccc(C)c(N2CCN(S(=O)(=O)CC34CCC(CC3=O)C4(C)C)CC2)c1 (stereo not drawn) | 35.5 µM [rising, single point] | –
62 | COc1cc2c3nnc(-c4ccccc4)c-3cn(Cc3ccccc3F)c2cc1OC | 6.31 µM [rising, single point] | –
63 | O=C(c1ccccc1)c1c[nH]c(C(=O)NCc2cccnc2)c1 | 20 µM [falling, single point] | –
